Results deposited as PubChem BioAssay AID1508597 (Cure First, 2020)
Screen: 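Genes whose silencing sensitises or protects ovarian cancer cells against rucaparib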 (primary screen). Cell system: human ovarian carcinoma lines grown from tumours: OCI-P5x (papillary serous) and OCI-C5x (clear cell). Reagents: siRNA pool against human genes, 1.25 pmol siRNA per well. Duration: 72 h or 96 h, depending on the cell culture. Challenge: rucaparib 20 µM (about IC30) or vehicle, present until read-out. Rucaparib or vehicle: Vehicle. Cell line: OCI-C5x (clear cell). Detection: 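Luminescent ATP-based viability assay read 72 or 96 h after transfection, depending on culture, given as normalised percent viability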. Scale: viability, normalised: higher = more viable cells remaining. Rule for the call: 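Active when normalised viability falls below 80 percent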. Calls: active = viability under 80%; inactive = viability 80% or more.
This is a random part of the about 2,100 reagents, under one of the conditions tested. 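Calls flag viability under 80% in either arm, not effects specific to rucaparib; the reference for percent is not stated.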 Some reagents were tested in more than one well and are listed for each. The record does not give: the 100% reference.

CHMP4B (charged multivesicular body protein 4B), technical replicate 1 gave viability, normalised (%) = 64.9; active.
With CHMP4B (charged multivesicular body protein 4B), technical replicate 2, the entry reads viability, normalised (%) = 78.6; active.
CHMP4B (charged multivesicular body protein 4B), technical replicate 3 gave viability, normalised (%) = 66.8; active.
CDK13 (cyclin dependent kinase 13), technical replicate 1 gave viability, normalised (%) = 64.1; active.
CDK13 (cyclin dependent kinase 13), technical replicate 2 gave viability, normalised (%) = 50; active.
For CDK13 (cyclin dependent kinase 13), technical replicate 3, the entry reads viability, normalised (%) = 56.4; active.
DDX31 (DEAD-box helicase 31), technical replicate 1 scored viability, normalised (%) = 47.8; active.
DDX31 (DEAD-box helicase 31), technical replicate 2 showed viability, normalised (%) = 48.1; active.
For DDX31 (DEAD-box helicase 31), technical replicate 3, the entry reads viability, normalised (%) = 56.1; active.
With APC (APC regulator of Wnt signaling pathway), technical replicate 1, the entry reads viability, normalised (%) = 40; active.
With APC (APC regulator of Wnt signaling pathway), technical replicate 1, the values are viability, normalised (%) = 38.1; active.
APC (APC regulator of Wnt signaling pathway), technical replicate 2 scored viability, normalised (%) = 49.5; active.
With APC (APC regulator of Wnt signaling pathway), technical replicate 2, the values are viability, normalised (%) = 36.8; active.
APC (APC regulator of Wnt signaling pathway), technical replicate 3 gave viability, normalised (%) = 33.9; active.
APC (APC regulator of Wnt signaling pathway), technical replicate 3 scored viability, normalised (%) = 46.5; active.
For SMCHD1, technical replicate 1, the entry reads viability, normalised (%) = 68.6; active.
SMCHD1, technical replicate 2 showed viability, normalised (%) = 41.2; active.
SMCHD1, technical replicate 3 scored viability, normalised (%) = 56.5; active.
For RPA1 (replication protein A1), technical replicate 1 the deposit lists viability, normalised (%) = 29.3; active.
RPA1 (replication protein A1), technical replicate 1 gave viability, normalised (%) = 29.6; active.
For RPA1 (replication protein A1), technical replicate 2, the values are viability, normalised (%) = 20; active.
RPA1 (replication protein A1), technical replicate 2 showed viability, normalised (%) = 31.6; active.
RPA1 (replication protein A1), technical replicate 3 showed viability, normalised (%) = 26.8; active.
RPA1 (replication protein A1), technical replicate 3 showed viability, normalised (%) = 26.7; active.

2 entries already listed, ordered by “viability, normalised (%)”, low to high:
APC (APC regulator of Wnt signaling pathway), technical replicate 1: viability, normalised (%) = 40; outcome = active
DDX31 (DEAD-box helicase 31), technical replicate 3: viability, normalised (%) = 56.1; outcome = active

The list goes on:
ANKK1 (ankyrin repeat and kinase domain containing 1), technical replicate 1 gave viability, normalised (%) = 61.5; active.
ANKK1 (ankyrin repeat and kinase domain containing 1), technical replicate 2 gave viability, normalised (%) = 66; active.
ANKK1 (ankyrin repeat and kinase domain containing 1), technical replicate 3 gave viability, normalised (%) = 45.8; active.
COASY (Coenzyme A synthase), technical replicate 1 scored viability, normalised (%) = 122; inactive.
COASY (Coenzyme A synthase), technical replicate 2 showed viability, normalised (%) = 60.4; active.
For COASY (Coenzyme A synthase), technical replicate 3, the values are viability, normalised (%) = 57.5; active.
HIPK1 (homeodomain interacting protein kinase 1), technical replicate 1 showed viability, normalised (%) = 72; active.
HIPK1 (homeodomain interacting protein kinase 1), technical replicate 2 scored viability, normalised (%) = 68.9; active.
HIPK1 (homeodomain interacting protein kinase 1), technical replicate 3 gave viability, normalised (%) = 64.9; active.
PTK6 (protein tyrosine kinase 6), technical replicate 1 showed viability, normalised (%) = 51.8; active.
PTK6 (protein tyrosine kinase 6), technical replicate 2 scored viability, normalised (%) = 52.2; active.
For PTK6 (protein tyrosine kinase 6), technical replicate 3, the entry reads viability, normalised (%) = 54.3; active.
MED17 (mediator complex subunit 17), technical replicate 1 showed viability, normalised (%) = 21.2; active.
MED17 (mediator complex subunit 17), technical replicate 2 showed viability, normalised (%) = 29.1; active.
For MED17 (mediator complex subunit 17), technical replicate 3, the entry reads viability, normalised (%) = 28.6; active.
For DDX56 (DEAD-box helicase 56), technical replicate 1 the deposit lists viability, normalised (%) = 33.9; active.
DDX56 (DEAD-box helicase 56), technical replicate 2 showed viability, normalised (%) = 42.9; active.
With DDX56 (DEAD-box helicase 56), technical replicate 3 the deposit lists viability, normalised (%) = 42.2; active.
